Source: PMC9166893
No constants are given. Whether binding was seen depends on the method and setting. Binding seen in cells or lysates may run through a third protein. Some binding calls cover weakened binding; strength is not graded here.

By UniProt entry, the sequences of proteins in these tests, tags left out.
UniProt P68400: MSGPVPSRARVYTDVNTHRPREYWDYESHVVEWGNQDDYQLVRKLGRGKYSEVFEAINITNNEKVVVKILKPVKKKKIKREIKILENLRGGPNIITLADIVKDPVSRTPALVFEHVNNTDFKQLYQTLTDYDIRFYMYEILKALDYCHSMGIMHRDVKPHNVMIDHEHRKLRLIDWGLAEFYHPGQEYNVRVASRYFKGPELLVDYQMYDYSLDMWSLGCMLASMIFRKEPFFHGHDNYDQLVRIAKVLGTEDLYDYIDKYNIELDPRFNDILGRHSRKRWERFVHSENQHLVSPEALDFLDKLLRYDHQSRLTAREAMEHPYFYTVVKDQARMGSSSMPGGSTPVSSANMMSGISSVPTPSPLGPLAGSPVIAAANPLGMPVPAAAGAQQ
UniProt P19139: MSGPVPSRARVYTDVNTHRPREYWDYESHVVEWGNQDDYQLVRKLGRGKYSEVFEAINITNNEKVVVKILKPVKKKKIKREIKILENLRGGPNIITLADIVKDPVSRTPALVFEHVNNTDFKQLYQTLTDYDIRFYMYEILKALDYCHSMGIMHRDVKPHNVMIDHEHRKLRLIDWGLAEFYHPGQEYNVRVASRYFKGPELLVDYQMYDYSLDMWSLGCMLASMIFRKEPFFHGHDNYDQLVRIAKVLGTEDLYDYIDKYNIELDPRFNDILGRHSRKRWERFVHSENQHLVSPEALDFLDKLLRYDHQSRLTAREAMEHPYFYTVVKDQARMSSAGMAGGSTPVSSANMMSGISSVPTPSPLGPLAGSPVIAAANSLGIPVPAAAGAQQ

Assays:
[1] = molecular target: protein kinase CK2α, endogenous in human U2OS cells (human (endogenous in U2OS)) (UniProt P68400); assay: co-IP; whole cell lysate of U2OS cells, immunoprecipitation with anti-CK2α antibodies as in Fig. 5H, Western blot
[2] = molecular target: protein kinase CK2α, endogenous in rat H9c2-CK2α-44 myoblasts (rat (endogenous in H9c2)) (UniProt P19139); assay: co-IP; whole cell lysate of control H9c2-CK2α-44 cells, immunoprecipitation with rabbit polyclonal anti-CK2α serum or goat anti-CK2α antibody, Western blot

Row | binding [1] | binding [2] | Binder
1 | no binding | – | ATRIP, endogenous in human U2OS cells (protein, UniProt Q8WXE1 1-791) MAGTSAPGSKRRSEPPAPRPGPPPGTGHPPSKRARGFSAAAAPDPDDPFGAHGDFTADDLEELDTLASQALSQCPAAARDVSSDHKVHRLLDGMSKNPSGKNRETVPIKDNFELEVLQAQYKELKEKMKVMEEEVLIKNGEIKILRDSLHQTESVLEEQRRSHFLLEQEKTQALSDKEKEFSKKLQSLQSELQFKDAEMNELRTKLQTSERANKLAAPSVSHVSPRKNPSVVIKPEACSPQFGKTSFPTKESFSANMSLPHPCQTESGYKPLVGREDSKPHSLRGDSIKQEEAQKSFVDSWRQRSNTQGSILINLLLKQPLIPGSSLSLCHLLSSSSESPAGTPLQPPGFGSTLAGMSGLRTTGSYDGSFSLSALREAQNLAFTGLNLVARNECSRDGDPAEGGRRAFPLCQLPGAVHFLPLVQFFIGLHCQALQDLAAAKRSGAPGDSPTHSSCVSSGVETNPEDSVCILEGFSVTALSILQHLVCHSGAVVSLLLSGVGADSAAGEGNRSLVHRLSDGDMTSALRGVADDQGQHPLLKMLLHLLAFSSAATGHLQASVLTQCLKVLVKLAENTSCDFLPRFQCVFQVLPKCLSPETPLPSVLLAVELLSLLADHDQLAPQLCSHSEGCLLLLLYMYITSRPDRVALETQWLQLEQEVVWLLAKLGVQSPLPPVTGSNCQCNVEVVRALTVMLHRQWLTVRRAGGPPRTDQQRRTVRCLRDTVLLLHGLSQKDKLFMMHCVEVLHQFDQVMPGVSMLIRGLPDVTDCEEAALDDLCAAETDVEDPEVECG
2 | binds | – | CDC45, endogenous in human U2OS cells (protein, UniProt O75419 1-566) MFVSDFRKEFYEVVQSQRVLLFVASDVDALCACKILQALFQCDHVQYTLVPVSGWQELETAFLEHKEQFHYFILINCGANVDLLDILQPDEDTIFFVCDTHRPVNVVNVYNDTQIKLLIKQDDDLEVPAYEDIFRDEEEDEEHSGNDSDGSEPSEKRTRLEEEIVEQTMRRRQRREWEARRRDILFDYEQYEYHGTSSAMVMFELAWMLSKDLNDMLWWAIVGLTDQWVQDKITQMKYVTDVGVLQRHVSRHNHRNEDEENTLSVDCTRISFEYDLRLVLYQHWSLHDSLCNTSYTAARFKLWSVHGQKRLQEFLADMGLPLKQVKQKFQAMDISLKENLREMIEESANKFGMKDMRVQTFSIHFGFKHKFLASDVVFATMSLMESPEKDGSGTDHFIQALDSLSRSNLDKLYHGLELAKKQLRATQQTIASCLCTNLVISQGPFLYCSLMEGTPDVMLFSRPASLSLLSKHLLKSFVCSTKNRRCKLLPLVMAAPLSMEHGTVTVVGIPPETDSSDRKNFFGRAFEKAAESTSSRMLHNHFDLSVIELKAEDRSKFLDALISLLS
3 | – | binds | checkpoint kinase CHK1, endogenous in rat H9c2-CK2α-44 myoblasts (enzyme, UniProt Q91ZN7 1-476) MAVPFVEDWDLVQTLGEGAYGEVQLAVNRITEEAVAVKIVDMKRAIDCPENIKKEICINKMLNHENVVKFYGHRREGNIQYLFLEYCSGGELFDRIEPDIGMPEQDAQRFFHQLMAGVVYLHGIGITHRDIKPENLLLDERDNLKISDFGLATVFRHNNRERLLNKMCGTLPYVAPELLKRKEFHAEPVDVWSCGIVLTAMLAGELPWDQPSDSCQEYSDWKEKKTYLNPWKKIDSAPLALLHKILVENPSARITIPDIKKDRWYNKPLNRGAKRPRATSGGMSESSSGFSKHIHSNLDFSPINSGSSEENVKFSSSQPEPRTGLSLWDTGPSNVDKLVQGISFSQPTCPDHMLVNSQLLGTPGSSQNPWQRLVKRMTRFFTKLDADKSYQCLKETFEKLGYQWKKSCMNQVTVSTMDRRNNKLIFKINLVEMDEKILVDFRLSKGDGLEFKRHFLKIKGKLSDIVSSQKVWFPVT
